# In PubChem BioAssay AID504847 (National Center for Advancing Translational Sciences (NCATS), 2011):
# By UniProt entry, the sequences of proteins in these tests, tags left out. Where a name states a change or a piece, a line headed by the entry shows the natural chain unless it says otherwise.
# UniProt P11473: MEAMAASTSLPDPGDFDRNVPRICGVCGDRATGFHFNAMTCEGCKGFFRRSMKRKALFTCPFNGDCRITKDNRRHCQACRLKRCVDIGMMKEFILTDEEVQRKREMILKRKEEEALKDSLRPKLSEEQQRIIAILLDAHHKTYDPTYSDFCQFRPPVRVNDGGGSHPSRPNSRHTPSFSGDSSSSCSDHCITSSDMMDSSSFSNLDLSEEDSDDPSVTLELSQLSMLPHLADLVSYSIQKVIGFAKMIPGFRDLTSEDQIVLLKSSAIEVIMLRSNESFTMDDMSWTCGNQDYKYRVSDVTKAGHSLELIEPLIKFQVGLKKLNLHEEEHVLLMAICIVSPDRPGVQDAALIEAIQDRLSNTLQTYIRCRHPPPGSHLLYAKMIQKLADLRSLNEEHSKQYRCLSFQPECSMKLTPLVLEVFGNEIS
# Values joined by “and” are separate entries in the source; they are usually repeats but may differ in a detail not shown here. Equal values may be shown once. Among all 400,000 compounds or so, about 3,700 (0.93%) were called active. Inconclusive results, whose numbers are uncertain, are shown with a selection of clear calls. Calls follow the shape of the dose curve; as a rule, active = well fitted inhibition curve with a large enough effect; inconclusive = small, poorly fitted or top-dose-only effect, or another doubt; inactive = no such curve, though single readings can be large or run the other way. Potencies of inconclusive entries are doubtful fits and often do not repeat.
# Target: Vitamin D3 receptor (Homo sapiens) (UniProt P11473)
# Experiment: Inhibitors of the vitamin D receptor (VDR): qHTS
# Details: VDR-SRC2-3 peptide fluorescence polarization, 2 h; max response, negative = inhibition: hits give low values
# In short: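 Inhibition of the VDR/SRC2-3 peptide interaction is quantified by fluorescence polarization. Compounds (23 nl, pintool) incubate with the reagents for 2 hours at ambient room temperature.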
# % is scaled to controls: 0 for no effect and ±100 for the full control effect; potency is read from the fitted curve at half-maximal effect.
Compound,Potency,"max response, negative = inhibition"
CCc1cccc(NC(=O)C2CCCN(S(=O)(=O)c3cccnc3)C2)c1 (centres undefined),"inconclusive: 100 µM [inhibitor, partial curve, poor fit]",
Cc1c(Cl)cccc1NC(=O)CNc1cccc(C(F)(F)F)c1,"inconclusive: 100 µM [inhibitor, single point]",
N#Cc1c(N)[nH]c(=S)c(C#N)c1-c1ccccc1,"inconclusive: 89.1 µM [inhibitor, single point]",
Cc1cc(C2=NNC(=NC3CC3)SC2)c(C)n1-c1c(C)n(C)n(-c2ccccc2)c1=O,,inactive: -3.45%
Cc1ccc2c(c1)c(=O)c(C(=O)c1ccc3c(c1)OCO3)cn2Cc1cccc(F)c1,,inactive: 6.39%
COC1=CC(=O)C(O)=C/C1=C\C=C\c1ccccc1,active: 2.82 µM,
N#Cc1c(-c2ccc(F)cc2)cc(-c2ccccc2)nc1SCC(=O)NCC(=O)O,"inconclusive: 89.1 µM [inhibitor, single point]",
COc1ccc(OC)c(C(c2c(O)nc(SC)[nH]c2=O)c2c(O)nc(SC)[nH]c2=O)c1,"inconclusive: 56.2 µM [inhibitor, partial curve, poor fit]",
Cc1ccc(CNC(=O)C2c3ccccc3C(=O)N3CCc4ccccc4C23)o1 (centres undefined),"inconclusive: 56.2 µM [inhibitor, partial curve, poor fit]",
COc1ccc(CCNC(=O)C(=O)NCc2ccccn2)cc1,"inconclusive: 89.1 µM [inhibitor, single point]",
O=C(Oc1cccc([N+](=O)[O-])c1)N1CCCCC1,,inactive: -2.28%
N#C/C(=N\Nc1ccc([N+](=O)[O-])cc1)C(N)=S,"inconclusive: 70.8 µM [inhibitor, single point]",
CCCCN1C(=O)/C(=C(/C#N)C(=O)N2CCCC2)c2ccccc21,active: 44.7 µM,
COCCn1c(SCCN2CCOCC2)nc2c1c(=O)[nH]c(=O)n2C,"inconclusive: 79.4 µM [inhibitor, single point]",
O=C(Oc1ccc(Br)cc1C(=S)N1CCOCC1)c1cccc([N+](=O)[O-])c1,"inconclusive: 79.4 µM [inhibitor, single point]",
CCCCC[C@H](O)/C=C/[C@H]1C(=O)C=C[C@@H]1C/C=C\CCCC(=O)O,active: 35.5 µM and active: 31.6 µM,
COc1ccc(CC(=O)NCC2CCCN(Cc3ccccc3OC)C2)cc1 (centres undefined),"inconclusive: 89.1 µM [inhibitor, partial curve, poor fit]",
Cc1nc(N2CCCC2)ncc1C(=O)N1CCN(c2ccc(Cl)cc2)CC1,,inactive: 1.25%
O=C(c1ccc2c(c1)OCO2)C1CCCN(Cc2cccn2-c2cccnc2)C1 (centres undefined),,inactive: 4.5%
CCOC(=O)c1ccccc1NC(=O)Cn1c(=O)n(CCCC(=O)NCc2ccc3c(c2)OCO3)c(=O)c2ccccc21,,inactive: -5.3%

# In the list so far, these contain a Cl atom.
Compound,Potency,"max response, negative = inhibition"
Cc1c(Cl)cccc1NC(=O)CNc1cccc(C(F)(F)F)c1,"inconclusive: 100 µM [inhibitor, single point]",
Cc1nc(N2CCCC2)ncc1C(=O)N1CCN(c2ccc(Cl)cc2)CC1,,inactive: 1.25%

# More results follow:

Compound,Potency,"max response, negative = inhibition"
Cc1ccc(Cl)cc1N1CCN(C(=O)CCS(=O)(=O)c2cccc3nonc23)CC1,,inactive: -9.19%
O=C(Nc1ccc(F)cc1)c1ccc(S(=O)(=O)N2CCCC2)cc1,"inconclusive: 79.4 µM [inhibitor, single point]",
CO[C@H]1C=CO[C@@]2(C)Oc3c(C)c(O)c4c(O)c(c(C=NN5CCN(C)CC5)c(O)c4c3C2=O)NC(=O)C(C)=CC=C[C@H](C)[C@H](O)[C@@H](C)[C@@H](O)[C@@H](C)[C@H](OC(C)=O)[C@@H]1C,"inconclusive: 70.8 µM [inhibitor, partial curve, poor fit]",
COCCn1c(C)cc(C2=NNC(=Nc3ccc(OC)cc3)SC2)c1C,,inactive: -14.8%
COc1c(Cl)cc(Cl)cc1CNCCNCC(C)O (centres undefined),,inactive: -3.61%
CCC(=O)NC(c1ccc(N(C)C)cc1)c1c(O)ccc2ccccc12 (centres undefined),,inactive: -8.63%
COc1ccc(SCCN2CCN(CCc3ccccc3)CCC2=O)cc1,"inconclusive: 63.1 µM [inhibitor, partial curve, poor fit]",
COc1ccc(NC(=O)CN(C)C(=O)c2c(C)nn(Cc3ccc(C)cc3)c2Cl)cc1,"inconclusive: 89.1 µM [inhibitor, partial curve]",
COc1cc([C@H]2Oc3cc([C@H]4Oc5cc(O)cc(O)c5C(=O)[C@@H]4O)ccc3O[C@@H]2CO)ccc1O,"inconclusive: 89.1 µM [inhibitor, partial curve, poor fit]",
C[C@]12CCC(=O)C=C1[C@@H]1C[C@H]1[C@H]1[C@@H]3[C@@H]4C[C@H]4[C@@]4(CCC(=O)O4)[C@@]3(C)CC[C@@H]12,"inconclusive: 44.7 µM [inhibitor, partial curve, poor fit]",
CC(C)=CCc1c(O)cc(O)c2c(=O)c3c(CC=C(C)C)c(O)ccc3oc12,,inactive: -6.44%
O=C(O)c1ccc2c(c1)C(=O)N(c1cccc(C(=O)/C=C/c3ccccc3)c1)C2=O,"inconclusive: 22.4 µM [inhibitor, partial curve, poor fit]",
Cc1ccsc1CNCc1cc(Cl)ccc1O,"inconclusive: 50.1 µM [inhibitor, partial curve, poor fit]",
Cc1nc(NC(=S)NC(=O)c2cncc(Br)c2)ccc1Br,"inconclusive: 39.8 µM [inhibitor, full curve]",
CCOC(=O)C1=C(N)Oc2ccc(Br)cc2C1C(C#N)C(=O)OCC (centres undefined),active: 7.08 µM and active: 5.01 µM and active: 5.62 µM,
CCOC(=O)c1nnc(-c2ccccc2)nc1Oc1ccccc1Cl,"inconclusive: 50.1 µM [inhibitor, partial curve, poor fit]",
Cc1ccc2nc(C)cc(N/N=C/c3ccccc3O)c2c1,"inconclusive: 25.1 µM [inhibitor, partial curve, poor fit]",
Cc1cccc(N2C(=O)/C(=C\c3ccc(C(=O)O)cc3)c3ccccc3C2=O)c1,"inconclusive: 89.1 µM [inhibitor, single point]",
CN(C)c1ccc(C2NCCS2)cc1 (centres undefined),"inconclusive: 89.1 µM [inhibitor, single point]",
